Experimental data: PubChem BioAssay AID504804 (Drosophila RNAi Screening Center, 2011)
Screen: 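Knock-downs shielding fly cells from apoptosis caused by DNA damage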 (primary screen). System: Drosophila Kc cells. Knock-down reagent: long dsRNA against Drosophila genes, 0.5 µg dsRNA per well. Timing: 96 h (48 h knock-down, then 48 h drug). Conditions: doxorubicin 5 µg/ml for 48 h, added 48 h after dsRNA. Measured: 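Viability measured as cellular ATP by luminescence after 48 h knock-down then 48 h doxorubicin at 5 µg/ml; unnormalised plate counts for each replicate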. Direction: raw ATP luminescence: higher = more viable cells, protection from doxorubicin. Active means: 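Active when both duplicate wells lie at least 2 SD above the plate mean and protection is confirmed by rescreening and independent dsRNAs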.
The screen tested about 19,000 reagents; this is a random part of those that have a named target and a result. Of all reagents, 47 (0.25%) were called active. 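Signals are raw, not normalised; exact z-scores behind calls not deposited; actives needed confirmation, so some wells reaching 2 SD are inactive.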 Unmarked entries are inactive. Names joined by + are all predicted targets of the reagent. No sequences are given here.

| target gene | amplicon | SD above plate mean | raw ATP luminescence, replicate 1 | raw ATP luminescence, replicate 2 |
| --- | --- | --- | --- | --- |
| twit | DRSC03210 | – | 65487 | 73897 |
| EMC5 | DRSC02469 | – | 67400 | 72143 |
| dpr2 | DRSC02370 | – | 44060 | 74717 |
| dpr2 | DRSC02371 | – | 48620 | 75177 |
| DCTN2-p50 | DRSC07132 | – | 54423 | 58860 |
| CG13078 | DRSC02182 | – | 60143 | 52790 |
| Elba3 | DRSC00469 | – | 98097 | 72550 |
| GstD11 | DRSC15251 | – | 54233 | 53733 |
| CG12945 | DRSC14573 | – | 61603 | 54097 |
| lili | DRSC14143 | – | 39523 | 38500 |
| Npc2g | DRSC14296 | – | 68930 | 54290 |
| CG4781 | DRSC04488 | 2 to 3 SD above plate mean (active) | 85047 | 94253 |
| Akr1B | DRSC10581 | – | 46507 | 38207 |
| se | DRSC10713 | – | 81630 | 96887 |
| CG34461 | DRSC10767 | – | 77060 | 76250 |
| DCTN1-p150 | DRSC11175 | – | 31073 | 24580 |
| Mal-B1 | DRSC02416 | – | 55907 | 56527 |
| CG13272 | DRSC02249 | – | 76053 | 78467 |
| Cpr50Ca | DRSC05454 | – | 98190 | 1.14e5 |
| CG9636 | DRSC16529 | – | 51323 | 21930 |
| lncRNA:CR42862 + CG33229 | DRSC08497 | – | 69993 | 53773 |
| tws | DRSC12767 | – | 68733 | 70990 |
| tws | DRSC17092 | – | 83663 | 37520 |
| CG15741 | DRSC19707 | – | 3.17e5 | 2.68e5 |
| ValRS-m | DRSC10535 | – | 61137 | 67160 |
| CG8172 | DRSC07089 | – | 71960 | 55093 |
| Mipp1 | DRSC11223 | – | 28580 | 24133 |
| Dhc93AB | DRSC16644 | – | 66100 | 53230 |
| Pp1-87B | DRSC16794 | – | 40950 | 20297 |
| fs(1)N | DRSC18578 | – | 42580 | 55990 |
| CG8534 | DRSC16439 | – | 58937 | 70000 |
| Rx | DRSC03837 | – | 72650 | 79953 |
| Rx | DRSC04652 | – | 53670 | 57430 |
| PH4alphaEFB | DRSC14950 | – | 63860 | 54400 |
| Rnmt | DRSC03558 | – | 75360 | 71787 |
| crol | DRSC03514 | – | 89703 | 74973 |
| Mlp60A | DRSC04623 | – | 48927 | 51397 |
| Cp190 | DRSC16607 | – | 51720 | 18357 |
| hyd | DRSC16971 | – | 48800 | 53690 |
| CG7137 | DRSC07017 | – | 71423 | 66747 |
| Ama | DRSC12489 | – | 44737 | 22410 |
| Nt5b | DRSC19977 | – | 3.63e5 | 3.16e5 |
| Nt5b | DRSC19978 | – | 3.97e5 | 3.55e5 |
| C15 | DRSC13495 | – | 2.63e5 | 3.31e5 |
| C15 | DRSC14169 | – | 44000 | 43930 |
| cmet | DRSC03511 | – | 35440 | 77637 |
| Ugt317A1 | DRSC04470 | – | 58047 | 54657 |
| ND-39 | DRSC11791 | – | 23790 | 28143 |
| tud | DRSC04719 | – | 65310 | 47233 |
| RIOK2 | DRSC14413 | – | 58770 | 55810 |
| Arp5 | DRSC16350 | – | 30610 | 45487 |
| CG4424 | DRSC15576 | – | 56300 | 49763 |
| CG7326 | DRSC20037 | – | 2.35e5 | 2.48e5 |
| Cog7 | DRSC16331 | – | 52890 | 41100 |
| CG43672 | DRSC19452 | – | 4.45e5 | 3.46e5 |
| CG43672 | DRSC20108 | – | 3.50e5 | 3.22e5 |
| mus201 + Chrac-14 | DRSC03568 | – | 39010 | 62330 |
| mus201 + Chrac-14 | DRSC03575 | – | 42343 | 58190 |
| Srp54k | DRSC11289 | – | 98150 | 84437 |
| yip7 | DRSC11410 | – | 73367 | 79447 |
| CG34230 | DRSC05317 | – | 87473 | 98067 |
| CG15533 | DRSC15069 | – | 39020 | 38090 |
| CG32344 | DRSC08578 | – | 61703 | 63853 |
| CG7215 + Prx5 | DRSC16214 | – | 41170 | 56570 |
| CG7215 + Prx5 | DRSC16215 | – | 40940 | 43730 |
| CG12835 (retired record) | DRSC06181 | – | 50733 | 89190 |
| CG13002 | DRSC19521 | – | 3.22e5 | 3.11e5 |
| CG4892 | DRSC01937 | – | 84040 | 83570 |
| schlank | DRSC18102 | – | 45410 | 44740 |
| schlank | DRSC18313 | – | 39860 | 45500 |
| CG3008 | DRSC00560 | – | 33383 | 46643 |
| Pfk | DRSC07506 | – | 51093 | 44063 |
| CG14864 | DRSC14987 | – | 81770 | 72660 |
| CG17982 | DRSC18143 | – | 35730 | 56150 |
| Eig71Ee | DRSC11152 | – | 69097 | 63217 |
| CG10939 | DRSC06019 | – | 61693 | 63700 |
| yip2 | DRSC03640 | – | 53203 | 58723 |
| CycD | DRSC20233 | – | 3.01e5 | 2.67e5 |
| Snmp1 | DRSC16168 | – | 28890 | 31670 |
| Sik3 | DRSC06771 | – | 56520 | 59163 |
| Cyp4p3 | DRSC07374 | – | 47333 | 65817 |
| Camta | DRSC06440 | – | 37587 | 66093 |
| Camta | DRSC06441 | – | 49233 | 76673 |
| Camta | DRSC07272 | – | 63737 | 83847 |
| CG13671 | DRSC10030 | – | 29860 | 33070 |
| CG32374 | DRSC10986 | – | 86730 | 81607 |
| CG17304 (retired record) | DRSC15222 | – | 31860 | 34690 |
| CG16854 | DRSC02536 | – | 47660 | 83563 |
| Tsp42Ec | DRSC06192 | – | 36840 | 62190 |
| CG15549 | DRSC15087 | – | 62450 | 40910 |
| Cnx99A + Cnx14D | DRSC16610 | – | 33700 | 39150 |
| NTPase | DRSC00761 | – | 1.34e5 | 77850 |
| l(3)04053 | DRSC11640 | – | 38287 | 39753 |
| Srr | DRSC16382 | – | 49730 | 44873 |
| CG32733 (retired record) | DRSC17481 | – | 1.29e5 | 1.50e5 |
| CG42552 (retired record) | DRSC11512 | – | 74347 | 47453 |
| p47 | DRSC06046 | – | 46847 | 41220 |
| CG31337 | DRSC12981 | – | 2.05e5 | 2.19e5 |
| CG10638 | DRSC09762 | – | 55970 | 48473 |
| Ae2 | DRSC08997 | – | 1.59e5 | 1.76e5 |
| Ae2 | DRSC10969 | – | 46200 | 47963 |
| Btnd | DRSC18316 | – | 40380 | 36440 |
| daed | DRSC00299 | – | 1.14e5 | 88690 |
| TwdlY | DRSC19153 | – | 1.94e5 | 2.00e5 |
| Pph13 | DRSC00775 | – | 78383 | 46477 |
| CAH6 | DRSC15505 | – | 62760 | 78130 |
| Ref2 | DRSC02563 | – | 59140 | 78623 |

Part of the list above, reformatted:
target gene	amplicon	SD above plate mean	raw ATP luminescence, replicate 1	raw ATP luminescence, replicate 2
Srr	DRSC16382		49730	44873
CG32733 (retired record)	DRSC17481		1.29e5	1.50e5
CG42552 (retired record)	DRSC11512		74347	47453
p47	DRSC06046		46847	41220
CG31337	DRSC12981		2.05e5	2.19e5
CG10638	DRSC09762		55970	48473
Ae2	DRSC08997		1.59e5	1.76e5
Ae2	DRSC10969		46200	47963
Btnd	DRSC18316		40380	36440
daed	DRSC00299		1.14e5	88690
TwdlY	DRSC19153		1.94e5	2.00e5
Pph13	DRSC00775		78383	46477
